Each number is a percent effect as filed.
How 0% and 100% were set is not recorded. Most values in the screen are low, and negative values occur.
The compounds are a random part of those screened.

Amino acid sequences for entries named in this document (tags omitted). Residues count along the entry.
UniProt P9WNZ1, whole entry: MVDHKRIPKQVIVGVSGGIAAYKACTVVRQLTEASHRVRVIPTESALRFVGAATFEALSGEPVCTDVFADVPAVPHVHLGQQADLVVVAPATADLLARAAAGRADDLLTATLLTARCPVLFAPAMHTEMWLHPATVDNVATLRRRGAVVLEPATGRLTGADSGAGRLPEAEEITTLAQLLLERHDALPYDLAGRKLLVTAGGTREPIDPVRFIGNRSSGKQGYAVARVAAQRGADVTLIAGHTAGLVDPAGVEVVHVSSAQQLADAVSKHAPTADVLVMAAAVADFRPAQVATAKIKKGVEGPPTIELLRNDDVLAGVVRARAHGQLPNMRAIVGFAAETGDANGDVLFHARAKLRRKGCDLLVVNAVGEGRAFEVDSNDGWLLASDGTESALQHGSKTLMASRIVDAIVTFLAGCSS
UniProt Q8IDJ8, 1-583: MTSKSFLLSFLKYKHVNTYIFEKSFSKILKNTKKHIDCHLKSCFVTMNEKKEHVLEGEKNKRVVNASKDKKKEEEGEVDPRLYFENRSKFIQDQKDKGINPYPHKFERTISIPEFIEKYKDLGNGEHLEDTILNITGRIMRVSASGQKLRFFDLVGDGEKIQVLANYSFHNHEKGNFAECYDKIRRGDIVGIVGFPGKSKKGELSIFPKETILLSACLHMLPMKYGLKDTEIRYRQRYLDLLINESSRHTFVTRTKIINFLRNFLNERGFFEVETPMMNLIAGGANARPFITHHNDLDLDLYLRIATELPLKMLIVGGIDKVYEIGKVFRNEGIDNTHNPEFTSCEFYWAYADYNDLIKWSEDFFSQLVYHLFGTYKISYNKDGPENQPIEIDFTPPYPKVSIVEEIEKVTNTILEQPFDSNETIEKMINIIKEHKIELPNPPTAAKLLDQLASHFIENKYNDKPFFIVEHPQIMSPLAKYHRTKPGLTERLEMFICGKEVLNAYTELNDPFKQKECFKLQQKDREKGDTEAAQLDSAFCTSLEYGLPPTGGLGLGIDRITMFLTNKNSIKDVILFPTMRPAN
UniProt P9WFT3, whole entry: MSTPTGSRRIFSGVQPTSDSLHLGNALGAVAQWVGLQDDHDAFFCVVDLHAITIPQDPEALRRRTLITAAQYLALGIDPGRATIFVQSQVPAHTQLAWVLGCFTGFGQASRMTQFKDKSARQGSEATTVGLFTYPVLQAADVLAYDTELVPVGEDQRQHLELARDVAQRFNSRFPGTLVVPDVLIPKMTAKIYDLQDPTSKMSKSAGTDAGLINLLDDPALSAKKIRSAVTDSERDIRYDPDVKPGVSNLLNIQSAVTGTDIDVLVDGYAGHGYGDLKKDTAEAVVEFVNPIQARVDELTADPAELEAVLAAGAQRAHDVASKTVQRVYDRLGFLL
UniProt I6X8D2, whole entry: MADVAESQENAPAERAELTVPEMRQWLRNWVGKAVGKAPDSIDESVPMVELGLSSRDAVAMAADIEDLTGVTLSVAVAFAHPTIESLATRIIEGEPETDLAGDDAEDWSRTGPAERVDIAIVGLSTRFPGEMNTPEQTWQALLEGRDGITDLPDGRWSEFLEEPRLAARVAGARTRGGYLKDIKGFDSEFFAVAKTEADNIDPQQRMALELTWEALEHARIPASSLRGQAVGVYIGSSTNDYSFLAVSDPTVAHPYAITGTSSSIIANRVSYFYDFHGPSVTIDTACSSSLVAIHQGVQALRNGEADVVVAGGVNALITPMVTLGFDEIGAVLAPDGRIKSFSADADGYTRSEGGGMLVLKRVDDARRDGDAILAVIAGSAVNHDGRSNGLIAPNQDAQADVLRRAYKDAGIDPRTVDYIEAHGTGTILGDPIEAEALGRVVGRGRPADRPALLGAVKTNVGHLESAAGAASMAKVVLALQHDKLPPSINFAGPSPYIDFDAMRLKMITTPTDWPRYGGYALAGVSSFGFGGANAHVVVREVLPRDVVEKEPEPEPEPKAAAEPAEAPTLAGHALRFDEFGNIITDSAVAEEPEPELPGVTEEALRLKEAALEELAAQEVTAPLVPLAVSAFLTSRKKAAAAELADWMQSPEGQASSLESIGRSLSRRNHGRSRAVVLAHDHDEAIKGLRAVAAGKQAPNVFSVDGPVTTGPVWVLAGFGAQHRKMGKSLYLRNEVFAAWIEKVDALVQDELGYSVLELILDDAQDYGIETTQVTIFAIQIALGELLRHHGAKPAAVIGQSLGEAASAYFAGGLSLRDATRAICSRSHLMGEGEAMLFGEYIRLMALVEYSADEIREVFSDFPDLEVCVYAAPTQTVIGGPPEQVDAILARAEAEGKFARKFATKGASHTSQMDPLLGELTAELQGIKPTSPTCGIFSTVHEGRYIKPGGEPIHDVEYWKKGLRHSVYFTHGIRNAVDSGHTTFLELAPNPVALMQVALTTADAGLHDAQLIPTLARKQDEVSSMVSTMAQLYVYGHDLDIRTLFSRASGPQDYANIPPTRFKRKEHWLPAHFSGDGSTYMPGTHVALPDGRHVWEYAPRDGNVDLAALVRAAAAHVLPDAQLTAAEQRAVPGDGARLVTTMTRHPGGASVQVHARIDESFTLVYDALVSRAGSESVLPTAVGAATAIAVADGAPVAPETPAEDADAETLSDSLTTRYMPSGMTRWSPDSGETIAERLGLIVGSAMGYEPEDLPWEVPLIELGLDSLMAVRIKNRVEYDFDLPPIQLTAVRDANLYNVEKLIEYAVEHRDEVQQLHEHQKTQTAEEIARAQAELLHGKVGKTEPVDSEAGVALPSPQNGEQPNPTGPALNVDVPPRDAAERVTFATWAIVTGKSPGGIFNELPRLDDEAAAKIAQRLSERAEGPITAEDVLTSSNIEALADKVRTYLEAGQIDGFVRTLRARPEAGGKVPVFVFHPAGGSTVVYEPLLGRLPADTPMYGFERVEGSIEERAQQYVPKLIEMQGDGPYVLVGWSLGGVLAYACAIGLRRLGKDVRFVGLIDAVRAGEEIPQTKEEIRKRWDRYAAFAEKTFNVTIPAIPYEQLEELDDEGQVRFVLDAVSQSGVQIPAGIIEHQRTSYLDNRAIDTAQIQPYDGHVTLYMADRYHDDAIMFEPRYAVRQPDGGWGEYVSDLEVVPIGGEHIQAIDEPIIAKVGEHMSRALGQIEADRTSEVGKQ

CoaBC: 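Enzyme assay of CoaBC with a phosphate dye (Biomol Green) read at 650 nm. Target: Coenzyme A biosynthesis protein CoaBC, Mycobacterium tuberculosis (UniProt P9WNZ1). Tested at 30 µM. Higher reads as stronger inhibition, judged from the few compounds that gave an IC50. Most strong results did not repeat in a second test. Of about 67,000 compounds tested this way, about 40 (0.06%) reached 50% or more in at least one test.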
PfKRS1: 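Lysine-tRNA ligase, Plasmodium falciparum 3D7 (UniProt Q8IDJ8). Enzyme assay of the cytosolic lysyl-tRNA synthetase in 384-well plates, read by luminescence. Concentration: 30 µM. Direction is inferred from only a few compounds that gave an IC50; most scored high, so higher reads as stronger inhibition. About 69,000 compounds were tested under these conditions; 0.071% (about 49) showed 50% or more at least once.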
Toxoplasma: 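Assay of Toxoplasma gondii numbers, read through their beta-galactosidase reporter with a colour substrate. Compounds at 10 µM. The record gives no direction; the compounds picked for IC50 retests had high values, so higher reads as fewer parasites. Of about 67,000 compounds tested this way, about 260 (0.38%) reached 50% or more in at least one test.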
MtTrpRS: 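Tryptophan-tRNA ligase, Mycobacterium tuberculosis (UniProt P9WFT3). Enzyme assay of tryptophanyl-tRNA synthetase; the read-out is not stated. Compounds at 10 µM. Direction is not recorded; retested compounds ran higher, which suggests that high means inhibition. About 65,000 compounds were tested under these conditions; 0.098% (about 64) showed 50% or more at least once.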
Pks13 thioesterase: 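Polyketide synthase Pks13, Mycobacterium tuberculosis (UniProt I6X8D2). Enzyme assay of the thioesterase domain of polyketide synthase 13; the read-out is not stated. Concentration: 30 µM. Higher reads as stronger inhibition (inferred from which compounds were picked for retests). Of about 67,000 compounds tested this way, about 300 (0.46%) reached 50% or more in at least one test.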

For COc1cc(CNCCNC(=O)c2ccc(O)cc2)ccc1SC the result was CoaBC: -2.174%; PfKRS1: 0.1828%; Toxoplasma: -5.294%; MtTrpRS: -7.091%; Pks13 thioesterase: -20.06%. Result for Cc1ccc(OCc2cccc(C(=O)N(C)CCC#N)c2)cn1 was CoaBC: 4.176%; PfKRS1: 6.334%; Toxoplasma: -3.084%; MtTrpRS: -1.941%; Pks13 thioesterase: -18.18%. With COCCN1C(=O)CC[C@]12CC[C@@H](NCc1ccc(OC)cc1)CC2 the screen gave CoaBC: -2.748%; PfKRS1: -2.944%; Toxoplasma: -13.8%; MtTrpRS: -8.245%; Pks13 thioesterase: -2.079%. c1cc(C2CN(C3CCCC3)C2)n[nH]1 gave CoaBC: -4.306%; PfKRS1: -0.7403%; Toxoplasma: 2.061%; MtTrpRS: -4.427%; Pks13 thioesterase: 9.629%.

With CCC(C)C(=O)NCCc1nc(C(F)(F)F)cs1 (configuration not stated) the screen gave CoaBC: 14.01%; PfKRS1: 5.495%; Toxoplasma: 4.205%; MtTrpRS: 0.7597%; Pks13 thioesterase: -13.44%. CC(=O)c1ccc(N2CCN(C(=O)NC(C)c3ccc(C)o3)CC2)cc1 (configuration not stated) read CoaBC: -4.839%; PfKRS1: 10.45%; Toxoplasma: -2.854%; MtTrpRS: 2.102%; Pks13 thioesterase: -8.321%. CCC(C)N(C)S(=O)(=O)c1ccc(CCNC(C)=O)s1 (configuration not stated) gave CoaBC: -23.63%; PfKRS1: 1.724%; Toxoplasma: -4.711%; MtTrpRS: -5.877%; Pks13 thioesterase: -5.492%. For [H][C@@]12CS(=O)(=O)C[C@]1([H])N(C(=O)c1[nH]c3ccc(F)cc3c1C)CCN2C the result was Toxoplasma: 11.38%.

For OCCCNC1CCc2cc3c(cc21)OCCO3 (configuration not stated) the result was CoaBC: -1.225%; PfKRS1: 3.238%; Toxoplasma: -0.3706%; MtTrpRS: 1.358%; Pks13 thioesterase: -19.9%. For O=C(O)C(F)(F)F.O=C(O)C(F)(F)F.O=C1CC[C@]2(CC[C@@H](NCc3cccnc3)CC2)N1Cc1ccccc1 the result was Toxoplasma: -23.63%. CNC(=O)CN1CCCC12CCN(C(=O)c1cccc(F)c1)CC2.O=C(O)C(F)(F)F read Toxoplasma: 3.513%. Result for Cn1nccc1C(=O)N1CCN(C(=O)C2CC2)[C@@H]2CS(=O)(=O)C[C@@H]21 was CoaBC: -2.057%; PfKRS1: 8.164%; MtTrpRS: 9.135%; Pks13 thioesterase: -28.61%.

O=C(O)C(F)(F)F.O=C(O)C(F)(F)F.[H][C@@]12COC[C@]1(C(=O)NCCc1cccs1)CN(Cc1ccccn1)C2 gave Toxoplasma: 31.6%. Cc1cc(NC(=O)NCCCSc2nncn2C)no1 read CoaBC: 2.581%; PfKRS1: 8.237%; Toxoplasma: 7.951%; MtTrpRS: 0.75%; Pks13 thioesterase: -14.55%. Result for c1cc(-c2cn[nH]c2)ccc1CN1CCCCC1 was CoaBC: -7.775%; PfKRS1: 3.912%; Toxoplasma: 26.55%; MtTrpRS: 2.929%; Pks13 thioesterase: -3.004%. With COc1cc(C2CC(=O)Nc3c2nc2n3CCCC2)ccc1O (configuration not stated) the screen gave CoaBC: 3.807%; PfKRS1: 8.21%; Toxoplasma: 14.68%; MtTrpRS: 4.196%; Pks13 thioesterase: -19.26%.

COc1cc(N2CC3(CCN(S(=O)(=O)C4CC4)C3)C2)ncn1 gave CoaBC: -1.053%; PfKRS1: 4.771%; Toxoplasma: -0.9029%; MtTrpRS: -3.586%; Pks13 thioesterase: -35.96%. With CN(C)c1ncc(NC(=O)c2cccc(Nc3cnn(C)c3)c2)cn1 the screen gave CoaBC: 1.071%; PfKRS1: 5.185%; Toxoplasma: -18.24%; MtTrpRS: -2.122%; Pks13 thioesterase: 14.64%. With CN(C)c1nccc(C2CN(C(=O)CO)C2)n1 the screen gave CoaBC: -3.585%; PfKRS1: 2.917%; Toxoplasma: 3.664%; MtTrpRS: -5.804%; Pks13 thioesterase: -1.243%. Result for Cc1cc(NC(=O)CC2(Cn3cnnn3)CCCCC2)nn1C was CoaBC: 2.785%; PfKRS1: 1.813%; Toxoplasma: -4.035%; MtTrpRS: 5.112%; Pks13 thioesterase: -1.332%.

With CC(C)c1n[nH]c(C2CN(C(=O)CCc3cscn3)CCO2)n1 (configuration not stated) the screen gave CoaBC: 1.279%; PfKRS1: -2.855%; Toxoplasma: 17.21%; MtTrpRS: 3.744%; Pks13 thioesterase: -7.772%. For Oc1ccc(-c2c(-c3ccccc3)ncn2C[C@H]2CCCN2)cc1 the result was CoaBC: -4.423%; PfKRS1: 2.278%; Toxoplasma: -5.096%; MtTrpRS: 2.821%; Pks13 thioesterase: -16.34%.

Once more, the final 2:

* CC(C)c1n[nH]c(C2CN(C(=O)CCc3cscn3)CCO2)n1 (configuration not stated) | CoaBC: 1.279%; PfKRS1: -2.855%; Toxoplasma: 17.21%; MtTrpRS: 3.744%; Pks13 thioesterase: -7.772%
* Oc1ccc(-c2c(-c3ccccc3)ncn2C[C@H]2CCCN2)cc1 | CoaBC: -4.423%; PfKRS1: 2.278%; Toxoplasma: -5.096%; MtTrpRS: 2.821%; Pks13 thioesterase: -16.34%

Source: ChEMBL document CHEMBL3988442, “University of Dundee, Small-Polar-MMV Screening Library” (2021).